At least one peptide structure holds a part that was inferred or is arguable (an end, a ring closure or a residue). Where a SMILES comes first, the peptide text is derived from it.
Columns and labels:
Assay type in all cases: cell-based
Fusarium oxysporum [1] = assay: Microscopic observation of spore germination of mold; conditions: final concentration 6 μM, 28° C., 24 hours
Fusarium oxysporum [2] = assay: Scanning electron microscope (SEM) observation after treatment; conditions: final concentration 6 μM
Staphylococcus aureus [3] = assay: Thermal stability of antimicrobial activity (colony count after heating the peptide); conditions: peptide 3 μM (1×MBC) kept at different temperatures for 30 minutes or in 100° C. water bath for different durations, then 4 hours with Staphylococcus aureus
Aspergillus flavus [4] = assay: Microscopic observation of spore germination of mold; conditions: final concentration 12 μM, 28° C., 24 hours
Acinetobacter baumannii = assay: Scanning electron microscope (SEM) observation after treatment; conditions: final concentration 3 μM
Staphylococcus aureus [5] = assay: as above; conditions: final concentration 3 μM
Aspergillus flavus [6] = assay: as above; conditions: final concentration 48 μM

SMILES: CC[C@H](C)[C@H](NC(=O)[C@@H](N)CC(C)C)C(=O)NCC(=O)N[C@@H](CC(C)C)C(=O)N[C@@H](Cc1ccc(O)cc1)C(=O)N[C@@H](CC(C)C)C(=O)N[C@@H](CC(C)C)C(=O)N[C@@H](Cc1c[nH]cn1)C(=O)N[C@@H](CCCNC(=N)N)C(=O)N[C@@H](CCCNC(=N)N)C(=O)N[C@@H](CCCNC(=N)N)C(=O)N[C@@H](CCCNC(=N)N)C(=O)N[C@@H](CCCNC(=N)N)C(=O)N[C@@H](Cc1c[nH]cn1)C(=O)O [Bolespleenin, Leu-Ile-Gly-Leu-Tyr-Leu-Leu-His-Arg-Arg-Arg-Arg-Arg-His] (H-LIGLYLLHRRRRRH-OH)
- inhibition of spore germination (Fusarium oxysporum [1]): significant inhibitory effect
- morphological changes under SEM (Fusarium oxysporum [2]): morphologies that change significantly
- thermal stability of antimicrobial activity (number of colonies) (Staphylococcus aureus [3]): did not affect the activity
- inhibition of spore germination (Aspergillus flavus [4]): significant inhibitory effect
- morphological changes under SEM (Acinetobacter baumannii): morphologies that change significantly
- morphological changes under SEM (Staphylococcus aureus [5]): morphologies that change significantly
- morphological changes under SEM (Aspergillus flavus [6]): morphologies that change significantly
